This note sets out measurements from the supplement of paper PMC10735217.

This assay concerns HEK293A TEAD-LUC reporter. The assay is described as follows: TEAD-luciferase reporter activity (YAP activation), robust Z score vs plate; higher = stronger YAP/TEAD activation. The conditions noted are these: 24 h. (In general: In a reporter assay the amount or activity of a reporter protein is the signal.)

Structures can show the parent of a compound that is named as a salt. Some of the results follow. This data set is noisy: repeats of one test often differ as much as different tests do.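 Human kidney-derived cells stably carry a construct in which eight TEAD-binding elements drive luciferase, measured by luminescence in a drug-repurposing library screen. A hit is any compound whose signal exceeds the plate mean by more than five robust Z scores.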

Take `COc1ccccc1Oc1c(NS(=O)(=O)c2ccc(C(C)(C)C)cc2)nc(-c2ncccn2)nc1OCCO` [bosentan once-daily]: the TEAD-luciferase reporter activity (compound concentration: 2 uM) is inactive: -0.975.

For `O=C1c2c(O)c(=O)ccn2N([C@@H]2c3ccccc3SCc3c2ccc(F)c3F)[C@@H]2COCCN12` [Baloxavir], the TEAD-luciferase reporter activity runs as follows: (compound concentration: 200 nM) inactive: 1.22; (compound concentration: 10 uM) inactive: 0.624.

As for `CCOC(=O)COc1ccc(C(=O)c2ccc(O)c(CN)c2)c(Cl)c1Cl`, the TEAD-luciferase reporter activity is, setting by setting: (compound concentration: 200 nM) inactive: -1.67; (compound concentration: 2 uM) inactive: -1.03; (compound concentration: 10 uM) inactive: -1.5.

As for `CCC(c1ccccc1)N1Cc2cc3c(cc2C[C@H]1C(=O)NC(Cc1ccc(C#N)cc1)C(=O)O)N(C)C(=O)[C@@H](c1ccc(OCc2ccc(Cl)c(Cl)c2)cc1)O3` (some centres undefined) [analog of TTP-054], the TEAD-luciferase reporter activity was inactive: 0.118 (compound concentration: 200 nM), inactive: -0.795 (compound concentration: 2 uM) and inactive: 4.94 (compound concentration: 10 uM).

Turning to `CC(C)[C@@H]1CC[C@@H](C)C[C@H]1O` [Menthol], the TEAD-luciferase reporter activity was inactive: -1.2 (compound concentration: 200 nM), inactive: -1.14 (compound concentration: 2 uM) and inactive: 0.221 (compound concentration: 10 uM).

Turning to `CCCCCN(C)CCC(O)(P(=O)(O)O)P(=O)(O)O` [ibandronate, Lanco Biosciences], the TEAD-luciferase reporter activity (compound concentration: 200 nM) was inactive: -0.605 and the TEAD-luciferase reporter activity (compound concentration: 10 uM) is inactive: 0.147.

With `CC(C)C[C@@H](NC(=O)[C@@H](Cc1ccccc1)NC(=O)[C@H](N)Cc1ccccc1)C(=O)N[C@H](CCCCN)C(=O)N1CCC(N)(C(=O)O)CC1`, the TEAD-luciferase reporter activity (compound concentration: 200 nM) is inactive: 0.147, the TEAD-luciferase reporter activity (compound concentration: 2 uM) was inactive: -0.714 and the TEAD-luciferase reporter activity (compound concentration: 10 uM) was inactive: 0.381.

Regarding `C[N+](C)(C)CCCCC[N+](C)(C)C`, the TEAD-luciferase reporter activity is, setting by setting: (compound concentration: 200 nM) inactive: -0.96; (compound concentration: 2 uM) inactive: -0.835; (compound concentration: 10 uM) inactive: -1.05.

In the case of `COc1cc(NS(=O)(=O)c2ccc(N)cc2)ncn1`, the TEAD-luciferase reporter activity runs as follows: (compound concentration: 200 nM) inactive: -0.377; (compound concentration: 2 uM) inactive: 0.809; (compound concentration: 10 uM) inactive: -0.52.

Regarding `O=C1CCC(N2C(=O)c3ccccc3C2=O)C(=O)N1` (centres undefined) [Thalidomide50-35-1], the TEAD-luciferase reporter activity is, setting by setting: (compound concentration: 200 nM) inactive: -0.0159; (compound concentration: 10 uM) inactive: -1.65.

`O=C1CCC(N2C(=O)c3ccccc3C2=O)C(=O)N1` (centres undefined) [thalidomide, Andrulis]: the TEAD-luciferase reporter activity (compound concentration: 2 uM) was inactive: -0.287.

On to `Cc1ccc(Cl)cc1N1CCN(CCCNC(=O)c2ccc3c(c2)NC(=O)C2CCCCN32)CC1` (centres undefined), for which the TEAD-luciferase reporter activity (compound concentration: 200 nM) is inactive: 0.747, the TEAD-luciferase reporter activity (compound concentration: 2 uM) was inactive: -0.348 and the TEAD-luciferase reporter activity (compound concentration: 10 uM) was inactive: 0.821.

With `Nc1c(CC(=O)O)cccc1C(=O)c1ccccc1` [amfenac sodium], the TEAD-luciferase reporter activity (compound concentration: 200 nM) is inactive: -1.67, the TEAD-luciferase reporter activity (compound concentration: 2 uM) was inactive: -1.12 and the TEAD-luciferase reporter activity (compound concentration: 10 uM) is inactive: 1.64.

As for `CN(C)Cc1c(C(=O)NCCOc2ccc(C(=O)NO)cc2)oc2ccccc12` [abexinostat], the TEAD-luciferase reporter activity (compound concentration: 2 uM) was active: 9.66.

On to `CN(C)Cc1c(C(=O)NCCOc2ccc(C(=O)NO)cc2)oc2ccccc12`, for which the TEAD-luciferase reporter activity by setting is: (compound concentration: 200 nM) active: 13.9; (compound concentration: 10 uM) active: 38.3.

For `CCOC(=O)OC(C)OC(=O)[C@@H]1N2C(=O)[C@@H](/N=C/N3CCCCCC3)[C@H]2SC1(C)C` (some centres undefined), the TEAD-luciferase reporter activity is, setting by setting: (compound concentration: 200 nM) inactive: -1.12; (compound concentration: 2 uM) inactive: 0.41; (compound concentration: 10 uM) inactive: 2.36.

For the molecule `CNCCCC12CCC(c3ccccc31)c1ccccc12` [Maprotiline hydrochloride], the TEAD-luciferase reporter activity reads like this: (compound concentration: 200 nM) inactive: 1.39; (compound concentration: 2 uM) inactive: -0.484; (compound concentration: 10 uM) inactive: -0.189.

For the molecule `CCC(=C(c1ccccc1)c1ccc(/C=C/C(=O)O)cc1)c1ccccc1`, the TEAD-luciferase reporter activity is inactive: -0.814 (compound concentration: 200 nM), inactive: 1.13 (compound concentration: 2 uM) and inactive: 0.494 (compound concentration: 10 uM).

With `CC(C)OC(=O)C(C)(C)Oc1ccc(C(=O)c2ccc(Cl)cc2)cc1`, the TEAD-luciferase reporter activity was inactive: 1.52 (compound concentration: 200 nM) and inactive: 0.695 (compound concentration: 10 uM).

With `CC(C)OC(=O)C(C)(C)Oc1ccc(C(=O)c2ccc(Cl)cc2)cc1` [fenofibrate (delayed release)], where the note is “compound concentration: 2 uM”, the TEAD-luciferase reporter activity was inactive: -1.67.

Turning to `CCCCCCCCCCCCOCCOCCOCCOCCOCCOCCOCCOCCOCCO` [polidocanol, BTG], the TEAD-luciferase reporter activity was inactive: -0.56 (compound concentration: 200 nM), inactive: -1.44 (compound concentration: 2 uM) and inactive: -1.47 (compound concentration: 10 uM).

As for `Cc1cc(-c2cc(O)ccc2Cl)cc2nnc(Nc3ccc(OCCN4CCCC4)cc3)nc12`, the TEAD-luciferase reporter activity runs as follows: (compound concentration: 200 nM) inactive: 0.0213; (compound concentration: 2 uM) inactive: 0.637; (compound concentration: 10 uM) inactive: 0.821.

Consider `O=S1(=O)c2cccc3cccc(c23)N1CCCN1CCN(c2ccc(F)cc2)CC1` [Fananserin], for which the TEAD-luciferase reporter activity was inactive: -1.27 (compound concentration: 200 nM), inactive: -1.06 (compound concentration: 2 uM) and inactive: 4.96 (compound concentration: 10 uM).

Regarding `O=C1CCCS(=O)(=O)c2ccc(Cl)cc21`, the TEAD-luciferase reporter activity is inactive: 0.353 (compound concentration: 200 nM), inactive: 0.176 (compound concentration: 2 uM) and inactive: 0.444 (compound concentration: 10 uM).

For `NC(=O)c1ccc(Oc2ccc(CN3CCCC3)cc2F)nc1`, the TEAD-luciferase reporter activity is, setting by setting: (compound concentration: 200 nM) inactive: 0.743; (compound concentration: 2 uM) inactive: -1.77; (compound concentration: 10 uM) inactive: 0.983.

Take `CC12CC(=O)C3C(CCC4CC(O)CCC43C)C1CCC2C(=O)CO` (centres undefined): the TEAD-luciferase reporter activity (compound concentration: 200 nM) is inactive: -0.652, the TEAD-luciferase reporter activity (compound concentration: 2 uM) is inactive: 2.75 and the TEAD-luciferase reporter activity (compound concentration: 10 uM) was inactive: 1.13.

`CC[C@@]1(O)C(=O)OCc2c1cc1n(c2=O)Cc2cc3c([N+](=O)[O-])cccc3nc2-1` [rubitecan]: the TEAD-luciferase reporter activity is inactive: -2.03 (compound concentration: 200 nM), inactive: -1.48 (compound concentration: 2 uM) and inactive: -2.85 (compound concentration: 10 uM).

Take `CC1(C)CC(Oc2ccc(-c3ccc(-c4cn[nH]c4)cc3O)nn2)CC(C)(C)N1`: the TEAD-luciferase reporter activity reads like this: (compound concentration: 200 nM) inactive: -0.17; (compound concentration: 2 uM) inactive: -1.05; (compound concentration: 10 uM) inactive: -1.25.

On to `C=C[C@]1(C)C[C@@H](OC(=O)NC(=O)C23CCN(CC2)CC3)[C@]2(C)C(C)CC[C@]3(CCC(=O)C32)[C@@H](C)[C@@H]1O` (some centres undefined), for which the TEAD-luciferase reporter activity is, setting by setting: (compound concentration: 200 nM) inactive: 2.03; (compound concentration: 2 uM) inactive: -0.571; (compound concentration: 10 uM) inactive: -1.76.
